Measured values: paper PMC12370185
The list shows a part of the results. For some assays here: At the low end of the ranking, values are background and their order means little.

What was measured:
Conditions in all cases: 10 mM Tris-Cl pH 7.5, 50 mM NaCl, 1 mM DTT, 0.25 mg/ml BSA, 2 mM MgCl2, 0.025% Nonidet P-40, 5% glycerol; 28 nM nucleosome library; 10 min on ice then 30 min …; high values mean tight binding; double strand, one strand shown
[1] = test system: KLF4 + histone octamer; assay: EMSA with sequencing
[2] = test system: SOX2 + histone octamer; assay: EMSA with sequencing
[3] = test system: c-MYC + MAX + histone octamer; assay: EMSA with sequencing
[4] = test system: OCT4 + histone octamer; assay: Pioneer-seq (competitive nucleosome EMSA with sequencing)
[5] = test system: OCT4 + histone octamer; assay: EMSA with sequencing
[6] = test system: SOX2 + histone octamer; assay: Pioneer-seq (competitive nucleosome EMSA with sequencing)

Sequence | binding signal (log2 relative supershift) [1] | binding signal (log2 relative supershift) [2] | binding signal (log2 relative supershift) [3] | binding signal (log2 relative supershift) [4] | binding signal (log2 relative supershift) [5] | binding signal (log2 relative supershift) [6]
GATGGACCCTATACGCGGCCTGTTTGGAAATTCATCATGGTAGAATGGAAAACACACATGCTCTGTAGTCAAGCACATCTAAGTGCCTCTTCCATCACTTACTGTCTGCATGACCATAAATCAGTCTGTCTGAGCCTCAGTTTTCTCATCCACCAAATGAAAGTAACACCTGACTCATGGAGTTTTCCTGCTGATGATATAATGAGATGATGCCAGTCGGATAGTGTTCC | 0.13 | 0.981 | 0.296 | -0.371 | – | –
GATGGACCCTATACGCGGCGGAAAGCTTTGGCCAGTCAGCAAAGGCACGTTGGGACTTGCAGCATGTTGGCTGCATGTGAAGTTACATCCAGCCACAGTGAAGCGATCACTAAAAAGTTGAGTTCCTGGGAAACACGGTACACAGCATGAGGCGTCAGTAATGTGAGGAGTGTGTTCTTTAGAATGGTCAATAATGTTAGAATGATGGAGTGCCAGTCGGATAGTGTTCC | 0.919 | 0.844 | 0.904 | -0.176 | – | –
GATGGACCCTATACGCGGCGAGATTATGCCCTGCATGCCTTCGCTAATGTAGATGTTCCCAACCCCTAAGGTAGCACGTGGTGTGGGCGTGGTCAGCTCAGCTCATCCAACAATAAGAACACAGCTTGTTTGGAGCACTCACTATGCCAGCTTTAAAGCAACTCTACTCTGGAACTACCTCTCTTGGCCCCATGGACTGGCCACAAAAGCTGCCAGTCGGATAGTGTTCC | 0.931 | 0.806 | 0.431 | -0.622 | – | –
GATGGACCCTATACGCGGCTGTGCTAGCAATTCTAAACAATGCAATAAAATTCTCTTCCCCACTGGAGTAAACTGCTCCCACCACTCCTCCTCCTTAGTCAGTCCCTAGTGGGGAAAAAGTCCCCACCCCTTGATGGGAGTGGTGACAAAGTCACATTGCAAAGGGGCACATGCACTGGGTTGGGAAGAATTATTACAGCCCACTTTGTATGCCAGTCGGATAGTGTTCC | 2.09 | 1.44 | 0.0331 | -0.23 | – | –
GATGGACCCTATACGCGGCCGCAGAAAGTGTACGCGTCAGAGAGTGGAAAGGAGAAAACAGGTTCTGGGACGGCGACAGAGAAGGGAAGTCGTGTCGCCCAGAAAGGCTATACAATCTCCACCCTTCCCGTTTGTCCCTGCGACACCCTTTCACCCTCCTGTCCCTCCGGACCTGCAATTCTTCACACCCTCTGCAGCGCACAGGGTGCTTGCCAGTCGGATAGTGTTCC | 1.28 | 0.35 | 0.197 | -0.169 | – | –
GATGGACCCTATACGCGGCTATTTCCCTCTTCTATTCACTCTTCAATTCACTATAATCTGACTTCCACCCTCCACTGAAAACTGCTTTTGTCAAGGTCAGGTCATCTGTACTCTCCATGTGCACATCTAGTGGATACTTGACCTTGTGGCAGCATTTGACAGTTTGCCCCTCCCTCCTGGAATCTTGCTCCCGGCTCCTATGACACCATGTGCCAGTCGGATAGTGTTCC | 1.81 | 1 | 0.784 | -0.147 | – | –
GATGGACCCTATACGCGGCTCTGACCCAACCTCAGTTTTAGAAAGCCATGTGCATCAGCTTCAGGATGGAATGTTCTCAGCCTGCCTGCCTCACCTCCCTGTGGCAGCCCAACTGCCTTGAATCTGGTAGTTCTTGCATTCTGGTCCAGCCCTTCTCCCCTCCCCTTACTCAGCAGTGGCACACCTTTCTCAATAAAAGACTCAGTTCAATGCCAGTCGGATAGTGTTCC | 2.29 | 1.06 | 0.589 | -0.775 | – | –
GATGGACCCTATACGCGGCTCTCAAACCTATCCCATGTCCAACTTTCCTGGATTGCTGCCACCACCTTGGGAACAGATTCTCCATGTCCAGGCTTGTCTCCCTCTGATCCATCCTCCACCCAGTTGCTAGAATAGTCTGACGACTCCACCCCCTGCTTGAAACCCGAACCCTCTGCATGCCTTATGAGAAATGTTGTCTCTGCCTCTCCCTGCCAGTCGGATAGTGTTCC | 2.18 | – | 0.146 | – | 0.826 | -0.781
GATGGACCCTATACGCGGCAGCCTGTCTGCAATTCTGCATCCACGTGCCTGCATGGTAATAACTGGCAGGAGCTGCACATGAGCTGCCTTTTGAGAAAGGGTCACACGCCCTTGAGTTCACTAGGTCCCCACCCAGCTGCTGTCTTACTCATCAACCTTTCCAACCAGGCCCTTGTTTGTTACCCTTGCGGCGGGGGAGGGGGGCGAAAATGCCAGTCGGATAGTGTTCC | 1.88 | 0.671 | 0.918 | -0.609 | – | –
GATGGACCCTATACGCGGCTTATCCCCTGGGTGGGTGTCTAATAAGCTCAGCACACCTCTGGATATCCTTCCTCCAGTCCACCTGTTTTTATACTCCTGTGCTCTCCTGCCTTTTCAAATGCCACACTTGTTCCACAGCCTTATCTGCCTCTCCCTCACCACCTTCAACCTTTCCCTATCTCGTGGCTCCTTTCCAGCAACAATTGAACATGCCAGTCGGATAGTGTTCC | 2.28 | 0.905 | 0.811 | -0.0921 | – | –
GATGGACCCTATACGCGGCTGCCAGGTGGTAATGAGCTCTGTGCACCCTACCTCAACTCCCTCAGCATCAGTGGAGACCACATGGGGAGCCAGGACTTCCACCCCCACCCCACCATAACTGGGTGCGTCTCCCCTTTCCCACCGGGGGTTGGATCAACGTTGGCCTAGAGATGAATCAGAAATCTTAGCAATGCCCAGTGGTTAAAAAGCTGCCAGTCGGATAGTGTTCC | 1.66 | 1.27 | 0.374 | -0.341 | – | –

Some of the entries above, set out differently:

| Sequence | binding signal (log2 relative supershift) [1] | binding signal (log2 relative supershift) [2] | binding signal (log2 relative supershift) [3] | binding signal (log2 relative supershift) [4] | binding signal (log2 relative supershift) [5] | binding signal (log2 relative supershift) [6] |
| --- | --- | --- | --- | --- | --- | --- |
| GATGGACCCTATACGCGGCTCTGACCCAACCTCAGTTTTAGAAAGCCATGTGCATCAGCTTCAGGATGGAATGTTCTCAGCCTGCCTGCCTCACCTCCCTGTGGCAGCCCAACTGCCTTGAATCTGGTAGTTCTTGCATTCTGGTCCAGCCCTTCTCCCCTCCCCTTACTCAGCAGTGGCACACCTTTCTCAATAAAAGACTCAGTTCAATGCCAGTCGGATAGTGTTCC | 2.29 | 1.06 | 0.589 | -0.775 | – | – |
| GATGGACCCTATACGCGGCTCTCAAACCTATCCCATGTCCAACTTTCCTGGATTGCTGCCACCACCTTGGGAACAGATTCTCCATGTCCAGGCTTGTCTCCCTCTGATCCATCCTCCACCCAGTTGCTAGAATAGTCTGACGACTCCACCCCCTGCTTGAAACCCGAACCCTCTGCATGCCTTATGAGAAATGTTGTCTCTGCCTCTCCCTGCCAGTCGGATAGTGTTCC | 2.18 | – | 0.146 | – | 0.826 | -0.781 |
